From patent US20170217899A1, “NOVEL HALOGEN-SUBSTITUTED COMPOUNDS” (BAYER CROPSCIENCE AKTIENGESELLSCHAFT, priority 2014, published 2017)
Some of these results come from one statement about several compounds together.

Tests used:
[1] = system: Tetranychus urticae; assay: Tetranychus urticae spray test OP-resistant; type: in vivo; settings: 100 g/ha, French bean leaf disks, all instars, after 6 days
Method: Tetranychus urticae—Spray Test OP-Resistant
(§1) To produce a suitable preparation of active compound, 1 part by weight of active compound is mixed with the stated amount of solvents and is diluted with water, containing an emulsifier concentration of 1000 ppm, to the desired concentration. Further test concentrations are prepared by dilution with emulsifier containing water.
French bean (Phaseolus vulgaris) leaf disks infected with all instars of the two spotted spidermite (Tetranychus urticae), are sprayed with a preparation of the active ingredient of the desired concentration.
After 6 days mortality in % is determined. 100% means all spider mites have been killed and 0% means none of the spider mites have been killed.

[2] = system: Phaedon cochleariae; assay: Phaedon cochleariae spray test; type: in vivo; settings: 100 g/ha, Chinese cabbage leaf disks, larvae, after 7 days
Method: Phaedon cochleariae—Spray Test
as §1
Chinese cabbage (Brassica pekinensis) leaf disks are sprayed with a preparation of the active ingredient of the desired concentration. Once dry, the leaf disks are infested with mustard beetle larvae (Phaedon cochleariae).
After 7 days mortality in % is determined. 100% means all beetle larvae have been killed and 0% means none of the beetle larvae have been killed.

SMILES | mortality [1] [%] | mortality [2] [%]
Cn1nc(C2(Cl)CC2)c(C(F)F)c1-n1cc(-c2ccc(Cl)c(C(=O)NC3(C#N)CC3)c2)cn1 [Example I-7] | 100 | 100
Cn1nc(C2(Cl)CC2)c(C(F)F)c1-n1cc(-c2ccc(Cl)c(C(=O)NC3CC3)c2)cn1 [Example I-8] | 100 | 100
